Measurements from the supplement of paper PMC10849652.
The other results are listed elsewhere or left out.

Protein sequences, listed by entry. Tags and fused reporters are not part of them. Lines headed by an entry give the natural chain unless they say otherwise; changes in a name come on top.
UniProt Q8N196: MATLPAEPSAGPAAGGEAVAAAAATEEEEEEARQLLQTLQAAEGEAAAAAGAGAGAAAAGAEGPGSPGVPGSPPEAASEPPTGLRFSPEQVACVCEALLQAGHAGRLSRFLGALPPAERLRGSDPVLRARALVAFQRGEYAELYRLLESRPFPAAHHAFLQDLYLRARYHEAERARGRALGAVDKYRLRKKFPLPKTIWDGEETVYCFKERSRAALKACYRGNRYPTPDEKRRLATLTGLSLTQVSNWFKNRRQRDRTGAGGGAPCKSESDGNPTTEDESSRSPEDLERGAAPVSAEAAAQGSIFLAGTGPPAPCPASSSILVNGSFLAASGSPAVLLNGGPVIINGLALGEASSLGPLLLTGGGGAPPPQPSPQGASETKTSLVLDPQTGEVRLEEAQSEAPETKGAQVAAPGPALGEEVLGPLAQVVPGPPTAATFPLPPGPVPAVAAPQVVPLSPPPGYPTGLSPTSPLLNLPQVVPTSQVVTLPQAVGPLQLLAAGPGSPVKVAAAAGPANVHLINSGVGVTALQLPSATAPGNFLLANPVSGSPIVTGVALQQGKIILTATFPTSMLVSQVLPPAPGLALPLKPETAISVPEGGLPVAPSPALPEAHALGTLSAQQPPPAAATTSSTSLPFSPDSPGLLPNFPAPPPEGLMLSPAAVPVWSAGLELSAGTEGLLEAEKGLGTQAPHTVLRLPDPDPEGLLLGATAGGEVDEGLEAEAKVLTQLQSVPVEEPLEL
UniProt Q86XK3: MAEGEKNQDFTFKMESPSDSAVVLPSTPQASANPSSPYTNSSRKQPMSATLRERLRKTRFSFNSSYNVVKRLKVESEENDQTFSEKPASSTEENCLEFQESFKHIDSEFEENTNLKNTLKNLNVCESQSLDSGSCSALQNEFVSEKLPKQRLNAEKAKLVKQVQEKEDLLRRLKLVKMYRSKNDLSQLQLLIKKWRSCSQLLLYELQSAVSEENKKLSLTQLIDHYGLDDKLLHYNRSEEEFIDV
UniProt P36952: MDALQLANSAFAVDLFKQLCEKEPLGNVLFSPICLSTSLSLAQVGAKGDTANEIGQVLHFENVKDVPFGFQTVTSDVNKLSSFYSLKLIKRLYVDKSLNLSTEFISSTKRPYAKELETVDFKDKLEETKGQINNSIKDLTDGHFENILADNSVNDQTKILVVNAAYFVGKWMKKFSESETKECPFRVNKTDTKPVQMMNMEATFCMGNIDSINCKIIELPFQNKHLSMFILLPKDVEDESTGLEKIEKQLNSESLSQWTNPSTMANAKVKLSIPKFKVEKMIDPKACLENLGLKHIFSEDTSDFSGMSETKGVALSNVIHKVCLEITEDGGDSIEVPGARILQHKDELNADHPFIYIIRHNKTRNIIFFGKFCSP
UniProt Q8NBJ9: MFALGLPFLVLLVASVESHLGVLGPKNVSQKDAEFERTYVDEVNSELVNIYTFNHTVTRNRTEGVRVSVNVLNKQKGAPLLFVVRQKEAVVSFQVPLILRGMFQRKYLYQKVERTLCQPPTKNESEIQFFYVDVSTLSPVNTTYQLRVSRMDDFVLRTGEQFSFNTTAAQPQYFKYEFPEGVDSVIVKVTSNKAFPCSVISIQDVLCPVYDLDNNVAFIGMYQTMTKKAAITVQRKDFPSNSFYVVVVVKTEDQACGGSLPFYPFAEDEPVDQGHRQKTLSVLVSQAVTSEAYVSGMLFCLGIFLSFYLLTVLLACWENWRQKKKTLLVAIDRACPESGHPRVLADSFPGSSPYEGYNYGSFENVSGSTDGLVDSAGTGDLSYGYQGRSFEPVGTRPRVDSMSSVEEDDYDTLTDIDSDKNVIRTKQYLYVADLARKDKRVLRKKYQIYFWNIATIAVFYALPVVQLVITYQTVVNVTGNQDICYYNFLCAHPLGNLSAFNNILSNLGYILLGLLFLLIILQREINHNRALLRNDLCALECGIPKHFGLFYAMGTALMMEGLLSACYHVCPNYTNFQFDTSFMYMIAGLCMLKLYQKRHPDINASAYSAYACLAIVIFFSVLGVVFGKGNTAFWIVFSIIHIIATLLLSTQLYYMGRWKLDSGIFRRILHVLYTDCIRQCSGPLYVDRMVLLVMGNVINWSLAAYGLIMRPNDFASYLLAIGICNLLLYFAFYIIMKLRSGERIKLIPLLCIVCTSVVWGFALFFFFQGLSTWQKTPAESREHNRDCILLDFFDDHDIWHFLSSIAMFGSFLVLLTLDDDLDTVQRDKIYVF
UniProt Q99963: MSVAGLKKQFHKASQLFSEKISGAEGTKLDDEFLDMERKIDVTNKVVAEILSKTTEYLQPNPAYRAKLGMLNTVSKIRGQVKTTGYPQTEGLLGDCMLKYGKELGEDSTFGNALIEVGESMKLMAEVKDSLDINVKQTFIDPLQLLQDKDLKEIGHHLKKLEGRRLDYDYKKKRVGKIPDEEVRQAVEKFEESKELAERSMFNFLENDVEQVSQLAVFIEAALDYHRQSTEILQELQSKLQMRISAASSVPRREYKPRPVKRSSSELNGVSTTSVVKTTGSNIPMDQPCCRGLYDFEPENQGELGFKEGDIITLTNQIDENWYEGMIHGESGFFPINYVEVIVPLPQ
UniProt Q96JX3: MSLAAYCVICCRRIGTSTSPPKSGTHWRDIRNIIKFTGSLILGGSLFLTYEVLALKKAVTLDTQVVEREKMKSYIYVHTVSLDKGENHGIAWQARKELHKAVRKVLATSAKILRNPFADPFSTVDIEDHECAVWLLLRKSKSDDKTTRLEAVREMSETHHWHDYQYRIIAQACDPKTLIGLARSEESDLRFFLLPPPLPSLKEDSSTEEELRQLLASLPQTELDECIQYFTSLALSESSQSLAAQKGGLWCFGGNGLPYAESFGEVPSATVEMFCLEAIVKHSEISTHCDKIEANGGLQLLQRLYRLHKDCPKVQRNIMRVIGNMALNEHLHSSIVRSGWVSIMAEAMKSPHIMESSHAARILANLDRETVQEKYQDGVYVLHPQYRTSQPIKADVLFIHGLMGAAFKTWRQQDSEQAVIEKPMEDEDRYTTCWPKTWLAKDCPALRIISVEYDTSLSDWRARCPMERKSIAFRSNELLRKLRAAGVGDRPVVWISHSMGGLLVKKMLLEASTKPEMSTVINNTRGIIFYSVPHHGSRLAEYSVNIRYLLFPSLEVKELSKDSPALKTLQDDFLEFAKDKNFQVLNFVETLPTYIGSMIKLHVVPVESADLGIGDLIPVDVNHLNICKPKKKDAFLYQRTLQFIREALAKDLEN
UniProt Q9NP50: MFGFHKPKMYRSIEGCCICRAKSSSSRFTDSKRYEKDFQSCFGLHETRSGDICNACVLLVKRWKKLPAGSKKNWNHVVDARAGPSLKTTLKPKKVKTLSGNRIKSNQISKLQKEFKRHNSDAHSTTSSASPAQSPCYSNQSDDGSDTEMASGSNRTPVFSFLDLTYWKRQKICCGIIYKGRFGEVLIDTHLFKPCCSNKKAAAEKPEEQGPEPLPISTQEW
UniProt Q9BRG2: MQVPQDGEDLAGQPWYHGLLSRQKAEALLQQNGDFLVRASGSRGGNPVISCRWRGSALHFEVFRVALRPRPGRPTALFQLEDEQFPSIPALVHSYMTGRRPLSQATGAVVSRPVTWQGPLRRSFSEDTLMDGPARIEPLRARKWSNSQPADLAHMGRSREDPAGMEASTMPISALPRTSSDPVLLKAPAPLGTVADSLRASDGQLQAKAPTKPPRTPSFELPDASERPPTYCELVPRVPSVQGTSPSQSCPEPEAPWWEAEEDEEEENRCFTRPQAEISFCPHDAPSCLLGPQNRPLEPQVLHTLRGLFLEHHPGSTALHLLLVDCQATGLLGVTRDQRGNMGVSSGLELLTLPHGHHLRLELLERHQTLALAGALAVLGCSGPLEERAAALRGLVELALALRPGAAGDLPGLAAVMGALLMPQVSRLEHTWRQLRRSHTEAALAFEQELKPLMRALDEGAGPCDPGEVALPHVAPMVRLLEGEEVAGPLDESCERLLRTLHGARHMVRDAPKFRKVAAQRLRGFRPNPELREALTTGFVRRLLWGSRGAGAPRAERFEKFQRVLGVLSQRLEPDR
UniProt Q9C0D9, whole entry, looked up: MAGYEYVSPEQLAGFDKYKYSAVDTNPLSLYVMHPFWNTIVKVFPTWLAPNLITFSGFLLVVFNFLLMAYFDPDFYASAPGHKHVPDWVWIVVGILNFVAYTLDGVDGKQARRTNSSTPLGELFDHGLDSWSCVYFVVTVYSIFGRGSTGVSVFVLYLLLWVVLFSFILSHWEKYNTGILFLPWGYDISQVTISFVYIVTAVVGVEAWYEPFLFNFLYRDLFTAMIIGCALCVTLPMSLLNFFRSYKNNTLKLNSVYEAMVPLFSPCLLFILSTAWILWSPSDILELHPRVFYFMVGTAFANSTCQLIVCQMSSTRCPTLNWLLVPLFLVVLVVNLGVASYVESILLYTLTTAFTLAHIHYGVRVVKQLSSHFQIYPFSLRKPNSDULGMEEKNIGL
UniProt Q2M3G4: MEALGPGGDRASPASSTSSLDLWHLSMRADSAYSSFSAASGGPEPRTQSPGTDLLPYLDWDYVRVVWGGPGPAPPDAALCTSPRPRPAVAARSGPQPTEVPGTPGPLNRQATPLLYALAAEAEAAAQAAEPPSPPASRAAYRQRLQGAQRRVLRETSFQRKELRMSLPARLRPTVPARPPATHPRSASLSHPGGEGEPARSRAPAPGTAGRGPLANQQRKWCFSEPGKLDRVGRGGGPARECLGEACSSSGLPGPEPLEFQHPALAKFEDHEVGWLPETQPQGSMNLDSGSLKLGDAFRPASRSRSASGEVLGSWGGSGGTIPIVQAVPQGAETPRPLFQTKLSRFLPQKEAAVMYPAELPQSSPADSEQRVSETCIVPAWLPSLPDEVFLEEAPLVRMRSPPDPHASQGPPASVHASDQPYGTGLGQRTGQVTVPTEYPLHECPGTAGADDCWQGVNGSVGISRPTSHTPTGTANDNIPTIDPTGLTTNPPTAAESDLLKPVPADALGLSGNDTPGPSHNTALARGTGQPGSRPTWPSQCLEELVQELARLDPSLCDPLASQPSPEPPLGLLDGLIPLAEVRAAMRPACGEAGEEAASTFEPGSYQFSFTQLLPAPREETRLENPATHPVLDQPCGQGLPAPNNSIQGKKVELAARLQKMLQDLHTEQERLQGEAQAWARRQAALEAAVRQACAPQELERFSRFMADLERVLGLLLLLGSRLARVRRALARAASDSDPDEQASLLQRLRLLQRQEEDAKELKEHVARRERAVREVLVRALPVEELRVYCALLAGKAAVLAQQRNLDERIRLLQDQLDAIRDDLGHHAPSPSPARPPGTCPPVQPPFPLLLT
UniProt Q8WVK7: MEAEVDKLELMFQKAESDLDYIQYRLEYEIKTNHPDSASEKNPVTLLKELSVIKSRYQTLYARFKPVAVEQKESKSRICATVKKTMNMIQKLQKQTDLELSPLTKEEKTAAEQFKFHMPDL
UniProt Q9H0F6: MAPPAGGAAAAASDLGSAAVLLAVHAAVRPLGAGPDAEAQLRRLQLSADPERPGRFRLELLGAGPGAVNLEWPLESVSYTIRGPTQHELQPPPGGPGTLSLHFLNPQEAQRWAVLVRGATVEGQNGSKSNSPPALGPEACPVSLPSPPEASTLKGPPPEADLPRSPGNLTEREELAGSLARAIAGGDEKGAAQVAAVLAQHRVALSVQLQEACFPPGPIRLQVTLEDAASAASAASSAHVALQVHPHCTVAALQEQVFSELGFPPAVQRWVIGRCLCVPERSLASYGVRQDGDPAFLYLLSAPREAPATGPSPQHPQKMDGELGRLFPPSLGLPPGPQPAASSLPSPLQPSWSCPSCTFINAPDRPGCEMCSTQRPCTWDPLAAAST
UniProt P05546: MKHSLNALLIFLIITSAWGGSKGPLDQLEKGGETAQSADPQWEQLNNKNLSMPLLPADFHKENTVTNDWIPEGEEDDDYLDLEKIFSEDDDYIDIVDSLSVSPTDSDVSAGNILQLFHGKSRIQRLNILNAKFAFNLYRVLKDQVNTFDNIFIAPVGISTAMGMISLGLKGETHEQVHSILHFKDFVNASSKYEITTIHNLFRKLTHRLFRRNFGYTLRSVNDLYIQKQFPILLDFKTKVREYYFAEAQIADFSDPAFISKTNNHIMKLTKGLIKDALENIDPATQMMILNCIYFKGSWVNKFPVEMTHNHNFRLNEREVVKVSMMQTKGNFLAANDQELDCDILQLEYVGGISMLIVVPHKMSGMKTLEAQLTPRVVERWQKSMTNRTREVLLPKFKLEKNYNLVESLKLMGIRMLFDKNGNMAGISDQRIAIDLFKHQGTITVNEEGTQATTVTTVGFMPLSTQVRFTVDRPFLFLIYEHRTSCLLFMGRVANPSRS
UniProt Q8WWX9, whole entry, looked up: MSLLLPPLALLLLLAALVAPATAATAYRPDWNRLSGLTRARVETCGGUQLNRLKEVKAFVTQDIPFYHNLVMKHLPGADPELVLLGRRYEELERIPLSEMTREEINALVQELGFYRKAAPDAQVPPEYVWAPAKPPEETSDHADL
UniProt Q8WV19: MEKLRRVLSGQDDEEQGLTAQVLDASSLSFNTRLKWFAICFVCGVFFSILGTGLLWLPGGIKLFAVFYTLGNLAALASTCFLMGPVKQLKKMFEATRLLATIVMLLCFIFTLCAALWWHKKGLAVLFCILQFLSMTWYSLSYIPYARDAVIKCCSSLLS

Columns and labels:
Test in all cases: log2 fold change, soluble protein after heating vs DMSO (PISA); higher = thermal stabilisation; K562 cells, 10 uM, 30 min; active = over 0.2 and 3.5 SD of the protein, either way, in both replicates (recomputed)
saracatinib = compound: CN1CCN(CCOc2cc(OC3CCOCC3)c3c(Nc4c(Cl)ccc5c4OCO5)ncnc3c2)CC1 [saracatinib]
Summary of the method: (§1)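 Thermal stability values are relative to control samples and come from duplicates. They are expressed as log2 fold changes. For measurement, K562 cells (2×10^6 cells/mL) received 10 μM compound for 30 min, and aliquots were heated for 3 min over 48°C-58°C, pooled, and extracted at 4°C in PBS with 0.5% NP-40. Soluble protein, the supernatant after 21,000xg for 90 min, was quantified by TMTpro 16plex LC-MS/MS with equalised channel sums.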

alvocidib = compound: CN1CC[C@H](c2c(O)cc(O)c3c(=O)cc(-c4ccccc4Cl)oc23)[C@H](O)C1 [alvocidib]
Summary of the method: as §1

rucaparib = compound: CNCc1ccc(-c2[nH]c3cc(F)cc4c3c2CCNC4=O)cc1 [rucaparib]
Summary of the method: as §1

[1] = compound: CNc1nc(-c2ccc3c(N)n[nH]c3c2)cc(N2C[C@@H](C(=O)NC3CCCCC3)CC[C@H]2C)n1
Summary of the method: as §1

encorafenib = compound: COC(=O)N[C@@H](C)CNc1nccc(-c2cn(C(C)C)nc2-c2cc(Cl)cc(NS(C)(=O)=O)c2F)n1 [encorafenib]
Summary of the method: as §1

[2] = compound: COC1=CC=C(C=C1)CN2C=CC3=C2C=C(C=C3)C(=O)NO
Summary of the method: as §1

zotarolimus = compound: CO[C@H]1C[C@@H]2CC[C@@H](C)[C@@](O)(O2)C(=O)C(=O)N2CCCC[C@H]2C(=O)O[C@H]([C@H](C)C[C@@H]2CC[C@H](n3cnnn3)[C@H](OC)C2)CC(=O)[C@H](C)/C=C(\C)[C@@H](O)[C@@H](OC)C(=O)[C@H](C)C[C@H](C)/C=C/C=C/C=C/1C [zotarolimus]
Summary of the method: as §1

idasanutlin = compound: COc1cc(C(=O)O)ccc1NC(=O)[C@@H]1N[C@@H](CC(C)(C)C)[C@](C#N)(c2ccc(Cl)cc2F)[C@H]1c1cccc(Cl)c1F [idasanutlin]
Summary of the method: as §1

alisertib = compound: COc1cc(Nc2ncc3c(n2)-c2ccc(Cl)cc2C(c2c(F)cccc2OC)=NC3)ccc1C(=O)O [alisertib]
Summary of the method: as §1

[3] = compound: COc1cccc2cc(-c3nc([C@H]4CC[C@H](C(=O)O)CC4)n4ncnc(N)c34)[nH]c12
Summary of the method: as §1

pictilisib = compound: CS(=O)(=O)N1CCN(Cc2cc3nc(-c4cccc5[nH]ncc45)nc(N4CCOCC4)c3s2)CC1 [pictilisib]
Summary of the method: as §1

sotrastaurin = compound: CN1CCN(c2nc(C3=C(c4c[nH]c5ccccc45)C(=O)NC3=O)c3ccccc3n2)CC1 [sotrastaurin]
Summary of the method: as §1

Tubastatin A = compound: CN1CCc2c(c3ccccc3n2Cc2ccc(C(=O)NO)cc2)C1 [Tubastatin A]
Summary of the method: as §1

[4] = compound: CNC(=O)C1=CC=CC=C1NC2=NC(=NC=C2Cl)NC3=C(C=C(C=C3)N4CCOCC4)OC
Summary of the method: as §1

defactinib = compound: CNC(=O)c1ccc(Nc2ncc(C(F)(F)F)c(NCc3nccnc3N(C)S(C)(=O)=O)n2)cc1 [defactinib]
Summary of the method: as §1

[5] = compound: COC(=O)[C@H](CCSC)NC(=O)C1=C(C=C(C=C1)NC[C@H](CS)N)C2=CC=CC=C2
Summary of the method: as §1

filanesib = compound: CON(C)C(=O)N1N=C(c2cc(F)ccc2F)S[C@@]1(CCCN)c1ccccc1 [filanesib]
Summary of the method: as §1

[6] = compound: COc1cc2nc(-c3cc(F)ccc3O)nc(N[C@@H]3CNC[C@H]3C(C)(C)O)c2cc1OC
Summary of the method: as §1

gefitinib = compound: COc1cc2ncnc(Nc3ccc(F)c(Cl)c3)c2cc1OCCCN1CCOCC1 [gefitinib]
Summary of the method: as §1

lapatinib = compound: CS(=O)(=O)CCNCc1ccc(-c2ccc3ncnc(Nc4ccc(OCc5cccc(F)c5)c(Cl)c4)c3c2)o1 [lapatinib]
Summary of the method: as §1

Measured: log2 fold change

SIX5 (UniProt Q8N196)
inactive: saracatinib -0.018 | alvocidib -0.083 | rucaparib -0.005 | [1] -0.063 | encorafenib -0.032 | [2] 0.031 | zotarolimus -0.053 | idasanutlin 0.105 | alisertib -0.203 | [3] 0.131 | pictilisib 0.047

SGTB (UniProt Q96EQ0)
inactive: sotrastaurin 0.04 | alvocidib 0.014 | Tubastatin A 0.005 | [4] 0.047 | defactinib -0.023 | rucaparib -0.009 | encorafenib 0.015 | [5] -0.007 | [2] -0.061 | filanesib 0.011 | zotarolimus 0.003 | idasanutlin -0.019 | alisertib -0.023 | [6] 0 | gefitinib -0.014 | [3] 0.005 | lapatinib 0.012 | pictilisib -0.095

SFR1 isoform 2 (UniProt Q86XK3)
inactive: sotrastaurin 0.166 | alvocidib 0.019 | defactinib -0.225 | [5] 0.12 | filanesib -0.023 | zotarolimus -0.052 | alisertib 0.026 | [3] 0.041

SERINC1 (UniProt Q9NRX5)
inactive: saracatinib 0.093 | sotrastaurin -0.053 | Tubastatin A -0.128 | [4] -0.008 | defactinib 0.031 | rucaparib -0.095 | [1] -0.088 | encorafenib -0.062 | [5] 0.055 | [2] 0.073 | filanesib -0.146 | idasanutlin 0.233 | alisertib 0.073 | [6] -0.208 | gefitinib -0.266 | [3] -0.167 | lapatinib -0.227

SEPTIN5 (UniProt Q99719)
inactive: saracatinib 0.051 | sotrastaurin 0.001 | Tubastatin A -0.035 | [4] -0.022 | defactinib 0.008 | rucaparib -0.036 | [1] 0.003 | encorafenib -0.007 | [5] -0.006 | [2] 0.034 | filanesib -0.003 | zotarolimus 0.013 | idasanutlin -0.067 | alisertib -0.044 | [6] 0 | gefitinib 0.006 | [3] 0.02 | lapatinib -0.035 | pictilisib 0.08

SETD3 (UniProt Q86TU7)
active: [2] -0.254
inactive: saracatinib 0.008 | sotrastaurin 0.012 | Tubastatin A -0.056 | [4] 0.014 | defactinib -0.004 | rucaparib 0.022 | [1] 0.032 | encorafenib -0.009 | [5] 0 | filanesib -0.132 | zotarolimus 0.009 | idasanutlin -0.086 | alisertib -0.022 | [6] 0.052 | gefitinib 0.017 | [3] 0.048 | lapatinib -0.013 | pictilisib 0.03

SERPING1 isoform 3 (UniProt P05155)
inactive: saracatinib 0.156 | alvocidib 0.077 | Tubastatin A -0.074 | [4] 0.032 | rucaparib -0.064 | [1] -0.016 | encorafenib -0.041 | zotarolimus -0.235

SERPINB5 (UniProt P36952)
inactive: saracatinib -0.079 | sotrastaurin 0.172 | Tubastatin A -0.607 | defactinib -0.154 | rucaparib -0.313 | [1] -0.109 | encorafenib -0.356 | [5] -0.582 | filanesib -0.393 | alisertib 2.07 | [3] 0.026

SIDT2 isoform 2 (UniProt Q8NBJ9)
inactive: saracatinib 0.08 | sotrastaurin 0.024 | Tubastatin A -0.083 | [4] 0.104 | defactinib -0.064 | rucaparib -0.002 | [1] -0.088 | encorafenib -0.053 | [5] -0.176 | [2] -0.062 | filanesib -0.08 | zotarolimus 0.127 | idasanutlin 0.01 | alisertib 0.082 | [6] -0.065 | gefitinib -0.207 | [3] 0.009 | lapatinib 0.004 | pictilisib 0.044

SH3PXD2B (UniProt A1X283)
inactive: sotrastaurin -0.017 | Tubastatin A -0.013 | [4] 0.061 | defactinib 0.013 | rucaparib 0.238 | encorafenib 0.011 | [5] 0.359 | filanesib -0.06 | zotarolimus -0.003 | idasanutlin -0.174 | alisertib -0.02 | gefitinib 0.149 | [3] -0.037 | pictilisib 0.162

SEMG2 (UniProt Q02383)
inactive: sotrastaurin -0.016 | Tubastatin A 0.025 | rucaparib -0.033 | encorafenib -0.011 | filanesib -0.002 | zotarolimus -0.021 | idasanutlin -0.135 | alisertib 0.005 | gefitinib -0.008 | [3] 0.063 | pictilisib -0.021

SH3GL3 isoform 3 (UniProt Q99963)
inactive: sotrastaurin -0.091 | Tubastatin A 0.196 | defactinib -0.168 | rucaparib -0.087 | encorafenib 0.084 | [5] 0.02 | filanesib -0.023 | alisertib 0.083 | [6] 0.355 | [3] 0.036 | lapatinib -0.061

SIMC1 (UniProt Q8NDZ2)
inactive: [4] -0.036

SIK2 (UniProt Q9H0K1)
inactive: [4] -0.553 | rucaparib 0.19 | encorafenib 0.456 | alisertib -0.048 | [6] 0.126 | [3] 0 | lapatinib 0.094

SHC1 (UniProt P29353)
inactive: idasanutlin -0.131

SEPTIN2 (UniProt B5MCX3)
inactive: Tubastatin A -0.04 | defactinib 0 | rucaparib 0.007 | encorafenib -0.086 | [5] 0.097 | idasanutlin -0.107

SERAC1 (UniProt Q96JX3)
inactive: alvocidib -0.027 | [4] 0.074 | rucaparib -0.016 | encorafenib 0.035 | zotarolimus -0.053 | alisertib 0.275 | gefitinib 0.06 | [3] 0.208

SINHCAF (UniProt Q9NP50)
inactive: sotrastaurin 0.838 | [2] 0.595 | filanesib -0.94

SH2D3A (UniProt Q9BRG2)
inactive: [4] -0.269 | defactinib 0.011 | [5] 0.057 | [2] 0.193 | gefitinib -0.039

SEPTIN7 isoform 2 (UniProt Q16181)
inactive: Tubastatin A -0.058 | [4] -0.095 | idasanutlin -0.116 | alisertib 1.39 | [3] -0.297

SHFL (UniProt Q9NUL5)
inactive: sotrastaurin -0.023 | Tubastatin A 0.147 | filanesib 0.154 | idasanutlin 0.229 | alisertib -0.103 | [6] -0.079 | gefitinib -0.031 | [3] -0.019 | lapatinib 0.03 | pictilisib -0.077

SELENOI (UniProt Q9C0D9)
inactive: [2] 0.106

SECISBP2L (UniProt Q93073)
inactive: defactinib -0.002 | [5] 0.068

SHANK2 isoform 3 (UniProt Q9UPX8)
inactive: sotrastaurin 0.015 | [2] 0.086 | filanesib 0.077 | gefitinib 0.065

SELENOP (UniProt P49908)
inactive: sotrastaurin -0.11 | [4] -0.026 | [2] 0.081 | filanesib -0.052 | alisertib 0.048 | [3] 0.417

SEMG1 (UniProt P04279)
inactive: alvocidib 2.77 | zotarolimus -0.021 | alisertib 0.551 | [3] -0.37

SIAH2 (UniProt O43255)
inactive: alvocidib 0.03 | defactinib 0.025 | rucaparib -0.041 | encorafenib 0.02 | [5] -0.055 | [2] -0.018 | zotarolimus -0.081 | idasanutlin -0.062 | alisertib -0.027 | [6] -0.034 | gefitinib 0.028 | [3] 0.025 | lapatinib -0.031

SETD2 (UniProt Q9BYW2)
inactive: Tubastatin A 0.145 | idasanutlin 0.077 | pictilisib 0.132

SEMA7A (UniProt O75326)
inactive: defactinib -0.033 | [5] 0.116 | pictilisib 0.232

SERPINB6, A0A2R8Y7E5
inactive: defactinib 0.056 | [5] -0.022 | [2] 0.101 | alisertib 1.55 | [3] 0.005

SIGIRR (UniProt H0YDR5)
inactive: [4] 0.047 | rucaparib -0.169 | encorafenib -0.118 | [2] -0.106 | pictilisib 0.116

SFXN1 (UniProt D6RDG7)
inactive: Tubastatin A -0.018 | alisertib 1.54 | [3] -0.086

SHROOM1 (UniProt Q2M3G4)
inactive: alvocidib -0.273 | [4] -0.079 | zotarolimus 0.072 | idasanutlin 0.088 | [6] 0.249 | lapatinib -0.151

SERPINA3 (UniProt P01011)
inactive: rucaparib -0.191 | encorafenib -0.068

SECISBP2 (UniProt Q96T21)
inactive: Tubastatin A 0.382 | alisertib 0.07 | gefitinib 0.17 | [3] -0.052 | pictilisib 0.233

SKA2 (UniProt Q8WVK7)
inactive: pictilisib -0.063

SHARPIN (UniProt Q9H0F6)
inactive: gefitinib -0.074

SGSH (UniProt P51688)
inactive: alvocidib -0.034 | [4] 0.008 | zotarolimus 0.026 | gefitinib -0.493

SELENON (UniProt Q9NZV5)
inactive: sotrastaurin 0.126 | defactinib -0.027 | [5] -0.03 | filanesib 0.045 | idasanutlin 0.056

SH2B1 (UniProt Q9NRF2)
inactive: defactinib -0.011 | [5] 0.002

SENP8 (UniProt Q96LD8)
inactive: [2] 0.046 | gefitinib 0.032

SERPIND1 (UniProt P05546)
inactive: alvocidib 0.129 | [4] 0.034 | [2] -0.01 | zotarolimus -0.031 | alisertib -0.196 | gefitinib 0.812 | [3] 0.303 | pictilisib -0.118

SELENOM (UniProt Q8WWX9)
inactive: [4] 0.115 | gefitinib 0.037

SFT2D1 (UniProt Q8WV19)
inactive: sotrastaurin 0.12 | rucaparib -0.088 | encorafenib 0.053 | filanesib -0.072 | idasanutlin -0.085 | alisertib 0.047 | [6] 0.048 | [3] 0.041 | lapatinib -0.024

Two entries drawn at random from those above:
SFT2D1 (UniProt Q8WV19)
inactive: sotrastaurin 0.12 | rucaparib -0.088 | encorafenib 0.053 | filanesib -0.072 | idasanutlin -0.085 | alisertib 0.047 | [6] 0.048 | [3] 0.041 | lapatinib -0.024

SERPIND1 (UniProt P05546)
inactive: alvocidib 0.129 | [4] 0.034 | [2] -0.01 | zotarolimus -0.031 | alisertib -0.196 | gefitinib 0.812 | [3] 0.303 | pictilisib -0.118

(further entries)

SESN1 isoform 2 (UniProt Q9Y6P5)
inactive: Tubastatin A -0.118 | [2] -0.071
